PubChem BioAssay AID1224830, NIAID, 2016
The deposit covers about 18,000 reagents; this is a random part of them. About 2,900 of all reagents (16%) were called active. 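Calls are made per well; low scores hint the gene aids the LPS response, high scores that it dampens it.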 Repeated entries: four replicate wells of each siRNA pool.

Test: 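Regulators of TLR4 signalling towards TNF-alpha in macrophage-like cells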 (primary screen)
Cell system: human THP-1 monocytic leukaemia cells, TNF dual-luciferase reporter clone, PMA-differentiated to macrophage-like cells
Knock-down reagent: siRNA pool against human genes, 50 nM
Duration: LPS for 4 h, given about 3 days after siRNA transfection
Challenge: bacterial LPS (TLR4 ligand), 10 ng/ml
Detection: 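TNF firefly reporter luminescence divided by renilla, normalised to the plate median, then turned into a robust z-score for each replicate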
Reading the numbers: TNF reporter robust z-score: higher = stronger TNF reporter response to LPS
Hit rule: 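Each well counts as active if its z-score is over 2.8 or under -1.5; controls are left without a call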

CRIP3 (cysteine rich protein 3)
- TNF reporter robust z-score: -0.14
- call: inactive

CRIP3 (cysteine rich protein 3)
- TNF reporter robust z-score: 1.47
- call: inactive

CRIP3 (cysteine rich protein 3)
- TNF reporter robust z-score: 0.78
- call: inactive

CRIP3 (cysteine rich protein 3)
- TNF reporter robust z-score: 0.11
- call: inactive

SPHK2 (sphingosine kinase 2)
- TNF reporter robust z-score: -0.38
- call: inactive

SPHK2 (sphingosine kinase 2)
- TNF reporter robust z-score: -0.44
- call: inactive

SPHK2 (sphingosine kinase 2)
- TNF reporter robust z-score: -0.1
- call: inactive

SPHK2 (sphingosine kinase 2)
- TNF reporter robust z-score: -0.2
- call: inactive

ZNF263 (zinc finger protein 263)
- TNF reporter robust z-score: -0.98
- call: inactive

ZNF263 (zinc finger protein 263)
- TNF reporter robust z-score: 0.51
- call: inactive

ZNF263 (zinc finger protein 263)
- TNF reporter robust z-score: -0.24
- call: inactive

ZNF263 (zinc finger protein 263)
- TNF reporter robust z-score: -0.59
- call: inactive

LRRN3 (leucine rich repeat neuronal 3)
- TNF reporter robust z-score: 1.47
- call: inactive

LRRN3 (leucine rich repeat neuronal 3)
- TNF reporter robust z-score: 0.32
- call: inactive

LRRN3 (leucine rich repeat neuronal 3)
- TNF reporter robust z-score: 1.19
- call: inactive

LRRN3 (leucine rich repeat neuronal 3)
- TNF reporter robust z-score: 0.97
- call: inactive

GPN2 (GPN-loop GTPase 2)
- TNF reporter robust z-score: -0.17
- call: inactive

GPN2 (GPN-loop GTPase 2)
- TNF reporter robust z-score: 1.01
- call: inactive

GPN2 (GPN-loop GTPase 2)
- TNF reporter robust z-score: 1.09
- call: inactive

GPN2 (GPN-loop GTPase 2)
- TNF reporter robust z-score: 0.23
- call: inactive

ZNF217 (zinc finger protein 217)
- TNF reporter robust z-score: 0.48
- call: inactive

ZNF217 (zinc finger protein 217)
- TNF reporter robust z-score: 1.28
- call: inactive

ZNF217 (zinc finger protein 217)
- TNF reporter robust z-score: 0.88
- call: inactive

ZNF217 (zinc finger protein 217)
- TNF reporter robust z-score: 1.11
- call: inactive

KDM5A (lysine demethylase 5A)
- TNF reporter robust z-score: -0.31
- call: inactive

KDM5A (lysine demethylase 5A)
- TNF reporter robust z-score: -0.19
- call: inactive

KDM5A (lysine demethylase 5A)
- TNF reporter robust z-score: 0.58
- call: inactive

KDM5A (lysine demethylase 5A)
- TNF reporter robust z-score: 0.86
- call: inactive

MARCHF3 (membrane associated ring-CH-type finger 3)
- TNF reporter robust z-score: 1.59
- call: inactive

MARCHF3 (membrane associated ring-CH-type finger 3)
- TNF reporter robust z-score: 0.29
- call: inactive

MARCHF3 (membrane associated ring-CH-type finger 3)
- TNF reporter robust z-score: 0.11
- call: inactive

MARCHF3 (membrane associated ring-CH-type finger 3)
- TNF reporter robust z-score: 1.42
- call: inactive

RUBCNL (rubicon like autophagy enhancer)
- TNF reporter robust z-score: 1.88
- call: inactive

RUBCNL (rubicon like autophagy enhancer)
- TNF reporter robust z-score: 0.77
- call: inactive

RUBCNL (rubicon like autophagy enhancer)
- TNF reporter robust z-score: 1.74
- call: inactive

RUBCNL (rubicon like autophagy enhancer)
- TNF reporter robust z-score: 0.78
- call: inactive

TRIM75 (tripartite motif containing 75)
- TNF reporter robust z-score: 0.35
- call: inactive

TRIM75 (tripartite motif containing 75)
- TNF reporter robust z-score: 0.71
- call: inactive

TRIM75 (tripartite motif containing 75)
- TNF reporter robust z-score: 0.2
- call: inactive

TRIM75 (tripartite motif containing 75)
- TNF reporter robust z-score: 1.01
- call: inactive

NOB1 (NIN1 (RPN12) binding protein 1 homolog)
- TNF reporter robust z-score: 0.08
- call: inactive

NOB1 (NIN1 (RPN12) binding protein 1 homolog)
- TNF reporter robust z-score: -0.34
- call: inactive

NOB1 (NIN1 (RPN12) binding protein 1 homolog)
- TNF reporter robust z-score: 0.19
- call: inactive

NOB1 (NIN1 (RPN12) binding protein 1 homolog)
- TNF reporter robust z-score: 0.14
- call: inactive

E2F2 (E2F transcription factor 2)
- TNF reporter robust z-score: 0.27
- call: inactive

E2F2 (E2F transcription factor 2)
- TNF reporter robust z-score: -0.88
- call: inactive

E2F2 (E2F transcription factor 2)
- TNF reporter robust z-score: -0.84
- call: inactive

E2F2 (E2F transcription factor 2)
- TNF reporter robust z-score: 0.75
- call: inactive

Quoted from the entries so far, 6 entries:
NOB1 (NIN1 (RPN12) binding protein 1 homolog)
- TNF reporter robust z-score: 0.08
- call: inactive

NOB1 (NIN1 (RPN12) binding protein 1 homolog)
- TNF reporter robust z-score: -0.34
- call: inactive

NOB1 (NIN1 (RPN12) binding protein 1 homolog)
- TNF reporter robust z-score: 0.19
- call: inactive

NOB1 (NIN1 (RPN12) binding protein 1 homolog)
- TNF reporter robust z-score: 0.14
- call: inactive

E2F2 (E2F transcription factor 2)
- TNF reporter robust z-score: 0.27
- call: inactive

E2F2 (E2F transcription factor 2)
- TNF reporter robust z-score: -0.88
- call: inactive
